Assay results taken from publication PMC4871590.
Results are given in words; binding and its absence hold for the method and conditions named. Binding seen in cells or lysates may run through a third protein. A result given as binding can be weak or reduced; the word gives no strength. Sequences can lack the tags named with a protein.

Experiments:
Experiment in all cases: co-IP; AvrE1-C’ wild type and k1k2 mutant with PP2A B’ subunits co-expressed in N. benthamiana (S4B Fig); which partner was pulled down is not told
[1] = target: T1, GFP-B’α (Arabidopsis PP2A B’α subunit) (Arabidopsis thaliana) (UniProt O04375)
T1 sequence: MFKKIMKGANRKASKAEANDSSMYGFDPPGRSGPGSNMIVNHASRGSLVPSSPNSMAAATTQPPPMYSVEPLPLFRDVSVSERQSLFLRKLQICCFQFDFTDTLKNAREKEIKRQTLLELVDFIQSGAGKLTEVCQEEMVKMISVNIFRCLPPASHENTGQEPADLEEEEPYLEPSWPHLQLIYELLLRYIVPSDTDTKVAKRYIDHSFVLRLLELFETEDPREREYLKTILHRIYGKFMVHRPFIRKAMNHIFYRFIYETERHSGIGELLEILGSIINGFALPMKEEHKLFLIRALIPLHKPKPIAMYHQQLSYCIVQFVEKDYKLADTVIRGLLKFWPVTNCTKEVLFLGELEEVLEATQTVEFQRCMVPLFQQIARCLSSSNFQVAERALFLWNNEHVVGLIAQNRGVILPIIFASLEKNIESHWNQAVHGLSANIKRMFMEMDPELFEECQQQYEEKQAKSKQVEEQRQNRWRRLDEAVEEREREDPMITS

[2] = target: T2, GFP-B’β (Arabidopsis PP2A B’β subunit) (Arabidopsis thaliana) (UniProt O04376)
T2 sequence: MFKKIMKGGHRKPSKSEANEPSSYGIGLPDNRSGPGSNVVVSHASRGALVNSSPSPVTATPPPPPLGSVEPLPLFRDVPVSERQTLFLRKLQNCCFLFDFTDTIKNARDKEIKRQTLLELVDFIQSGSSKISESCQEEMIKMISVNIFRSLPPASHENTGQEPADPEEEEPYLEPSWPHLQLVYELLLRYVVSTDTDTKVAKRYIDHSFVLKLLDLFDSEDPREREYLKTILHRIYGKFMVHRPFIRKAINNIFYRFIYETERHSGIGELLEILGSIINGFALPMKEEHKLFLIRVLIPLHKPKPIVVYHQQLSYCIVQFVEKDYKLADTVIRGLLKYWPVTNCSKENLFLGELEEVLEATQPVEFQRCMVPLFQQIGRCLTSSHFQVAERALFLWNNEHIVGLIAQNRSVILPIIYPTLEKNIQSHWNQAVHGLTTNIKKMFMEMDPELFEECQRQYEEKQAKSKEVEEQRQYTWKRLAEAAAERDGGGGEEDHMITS

[3] = target: T3, GFP-B’η (Arabidopsis PP2A B’η subunit) (Arabidopsis thaliana) (UniProt Q9LU89)
T3 sequence: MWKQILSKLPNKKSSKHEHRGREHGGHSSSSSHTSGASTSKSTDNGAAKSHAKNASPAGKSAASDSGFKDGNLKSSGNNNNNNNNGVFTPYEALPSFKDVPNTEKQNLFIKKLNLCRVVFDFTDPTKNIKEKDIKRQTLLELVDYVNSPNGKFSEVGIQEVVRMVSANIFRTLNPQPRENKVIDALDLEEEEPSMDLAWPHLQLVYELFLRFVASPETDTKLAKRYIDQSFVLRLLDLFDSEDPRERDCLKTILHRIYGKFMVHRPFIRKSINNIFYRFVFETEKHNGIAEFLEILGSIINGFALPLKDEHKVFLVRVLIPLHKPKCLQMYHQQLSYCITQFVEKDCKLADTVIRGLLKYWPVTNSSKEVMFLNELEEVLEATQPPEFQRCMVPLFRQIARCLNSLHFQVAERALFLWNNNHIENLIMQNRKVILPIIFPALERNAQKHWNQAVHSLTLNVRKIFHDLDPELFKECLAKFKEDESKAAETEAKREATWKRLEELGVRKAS

For “AvrE1-C’ fragment k1k2 mutant (KK1787-88AA) (Pseudomonas syringae pv. tomato DC3000) (domain or fragment)”, the binding [1] was “binds”, the binding [2] was “binds” and the binding [3] was “binds weakly”.
